Source: article PMC6161111 (Pharmaceuticals, 2018)

Experiment: general procedure: Fmoc solid-phase peptide synthesis; Rink amide MBHA; HBTU
Conditions: whole synthesis

Point of comparison: aminooxy-PESIN, isolated yield 27%. Against it:
- [Lys^4(aminooxy),Trp^5,Nle^7]BVD15 — higher, 35%
- [Lys^4(aminooxy),Trp^5,Nle^7]BVD15scrambled — lower, 20%
- [Lys^4(DOTA),Trp^5,Nle^7]BVD15 — higher, 45%
- DOTA-PESIN — lower, 7%

Experiment: general procedure: Fmoc solid-phase peptide synthesis; Rink amide MBHA resin / Rink amide resin; HBTU
Conditions: conjugation step

Point of comparison: “24c (PESIN and [Lys^4,Trp^5,Nle^7]BVD15 scrambled)”, conjugation yield 61%. Against it:
- 24a (PESIN scrambled) — lower, 49%
- 24b ([Lys^4,Trp^5,Nle^7]BVD15 scrambled) — higher, 63%

Experiment: general procedure: Fmoc solid-phase peptide synthesis; Rink amide; HBTU
Conditions: whole synthesis

Point of comparison: bombesin, isolated yield 22%. Against it:
- [Lys^4,Trp^5,Nle^7]BVD15 — higher, 40%
